The values that follow come from PubChem BioAssay AID1487 (National Center for Advancing Translational Sciences (NCATS), 2009).

This test in a line: qHTS Assay for Modulators of Lamin A Splicing. Particulars: HeLa LMNA splicing GFP/RFP minigene ratio, 48 h. A digest of the protocol:
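Read-out is the ratio of GFP to DsRed2 object intensity, acquired by 488 nm laser-scanning cytometry on HeLa lamin A-EGFP minigene reporter cells. Compound incubation 48 hrs at 37 °C in Opti-MEM with 2% FBS; DMSO 0.5% final.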
On the technique in general: In qHTS, concentration-response curves come from the screen itself.

[1] abbreviates: measured here: GFP splicing reporter channel.
Setting [2] is: measured here: RFP viability control channel.

The other results are listed elsewhere or left out. Shown are side measurements of this screen, not its main read-out; they come without a call. Most of these compounds were active or inconclusive in the main read-out, so they are no random draw. Words in brackets tell the shape of the fitted curve; partial curves, single points and poor fits give uncertain potencies.

Usually AC50 stands for the concentration giving half of the maximal activity seen. On to `Clc1ccccc1CSC1=NCCN1`, for which the AC50 under setting [1] was 17.8 µM [falling, single point].

Regarding `N=C(N)CCCOc1ccccc1-c1ccccc1`, the AC50 under setting [2] was 31.6 µM [rising, single point].

`COc1ccc(CNC(=O)c2sc3nc4n(c(=O)c3c2C)CCC4)cc1`: the AC50 under setting [2] was 0.282 µM [falling, full curve, poor fit].

On to `CCOC(=O)c1c(NC(=O)CN2C(=O)NC3(CCCCCC3)C2=O)sc(C)c1-c1ccc(C)cc1`, for which the AC50 under setting [1] was 0.224 µM [rising, full curve, poor fit].

Turning to `OCCCNc1ncnc2sc(-c3ccccc3)cc12`, under setting [2], the AC50 was 6.31 µM [rising, partial curve].

Turning to `Cc1ccc(Nc2nc(Nc3ccc(C)cc3)nc(SC3=NCCS3)n2)cc1`, the AC50 under setting [1] was 12.6 µM [falling, single point].

As to `CC(C)(C)c1ccc(C(=O)NC(Cc2c[nH]c3ccccc23)C(=O)OCC(=O)c2ccc(Br)cc2)cc1` (stereo unspecified), under setting [2], the AC50 is 0.501 µM [falling, full curve, poor fit].

As for `COc1cc2nc(CSc3nc(-c4ccc(F)cc4)cs3)[nH]c(=O)c2cc1OC`, the AC50 under setting [2] is 7.08 µM [rising, partial curve].

On to `COc1cc(C(=O)NCc2ccccc2)cc(Br)c1OC`, for which the AC50 reads like this: under setting [1], 5.62 µM [falling, full curve, poor fit]; under setting [2], 6.31 µM [falling, full curve, poor fit].

As for `CCCCOc1cccc(C(=O)NNC(=S)NC2CCCCC2)c1`, the AC50 is, setting by setting: under setting [1], 15.8 µM [rising, single point]; under setting [2], 22.4 µM [rising, single point].

Take `COc1ccccc1-c1noc(CSc2nc(C)cc(=O)[nH]2)n1`: the AC50 under setting [1] is 39.8 µM [falling, partial curve, poor fit].

Regarding `CCOc1cc(C2NC(=O)NC(O)(C(F)(F)F)C2C(=O)c2ccc(Cl)cc2)ccc1O` (stereo unspecified), the AC50 under setting [2] is 35.5 µM [rising, single point].

On to `Cc1cc(F)ccc1NC(=O)CS(=O)(=O)c1cccc2nsnc12`, for which, under setting [1], the AC50 is 3.16 µM [falling, partial curve, poor fit].

Consider `Fc1ccc2nc(Nc3nc4cc5c(cc4s3)OCCO5)sc2c1`, for which the AC50 is 3.98 µM [rising, full curve, poor fit] under setting [1] and 25.1 µM [rising, partial curve] under setting [2].

With `CC(=O)Nc1ccccc1C(=O)C(=O)Nc1ccc(C(=O)NCC2CCCO2)cc1` (stereo unspecified), the AC50 under setting [2] was 7.08 µM [rising, single point].

Regarding `O=C(COc1ccc2ccccc2c1)NCCn1ccc2ccccc21`, the AC50 under setting [2] was 22.4 µM [rising, single point].

Consider `O=C(c1ccccc1Cl)N(C(=O)c1ccccc1Cl)c1nccc(-c2cccs2)n1`, for which the AC50 was 11.2 µM [rising, partial curve, poor fit] under setting [1] and 1.78 µM [rising, partial curve, poor fit] under setting [2].

In the case of `CCN(CC)S(=O)(=O)c1cc(NC(=O)c2cc(-c3ccccn3)nc3ccccc23)ccc1C`, the AC50 under setting [2] was 35.5 µM [rising, partial curve, poor fit].

Take `CC(C)c1ccc(NC(=O)N2CCC(c3nc4ccccc4o3)CC2)cc1`: the AC50 under setting [1] is 10 µM [rising, partial curve] and the concentration at half-maximal activity (AC50) under setting [2] was 12.6 µM [rising, partial curve].

Take `CSc1ccc(CCNC(=O)c2cc3cc(S(=O)(=O)N4CCCCC4)ccc3n2C)cc1`: the AC50 under setting [1] is 0.447 µM [rising, single point].

For `COc1ccc(CNc2nc(SCc3ccccc3Cl)nc3ccccc23)cc1`, the AC50 reads like this: under setting [1], 17.8 µM [falling, partial curve, poor fit]; under setting [2], 35.5 µM [falling, single point].

Consider `C/C(=N\NC(=O)c1ccc(C)cc1)C1C(=O)c2ccccc2C1=O`, for which the AC50 under setting [2] is 35.5 µM [rising, single point].

For `COc1ccc(S(=O)(=O)N(C(C)=O)c2ccc3oc(=O)sc3c2)cc1`, the AC50 under setting [2] is 10 µM [rising, partial curve].

With `CCCCc1nc2c(c3c1C[C@H](C)OC3)CN(S(=O)(=O)c1ccc(Cl)c3nonc13)CC2`, the AC50 is 0.794 µM [falling, partial curve, poor fit] under setting [1] and 0.562 µM [falling, partial curve, poor fit] under setting [2].

As for `COc1ccccc1/C=N/N1C(=O)C(CC(=O)Nc2ccc([N+](=O)[O-])cc2OC)SC1=Nc1cccc(C)c1C` (stereo unspecified), the AC50 was 0.00501 µM [falling, full curve, poor fit] under setting [1] and 0.00355 µM [falling, full curve, poor fit] under setting [2].

Consider `COc1cc(/C=C/C(=O)OCC(=O)NCc2ccco2)cc(OC)c1OC`, for which the AC50 under setting [2] was 0.355 µM [rising, full curve, poor fit].

Take `O=C1Nc2ccccc2CCC1Sc1nnc(-c2ccc(Cl)cc2)s1` (stereo unspecified): under setting [2], the AC50 was 15.8 µM [rising, partial curve, poor fit].

For `O=C(CSc1nc(=O)[nH]c2c1CCCC2)NCc1ccc(F)cc1`, the AC50 under setting [1] is 1.41 µM [falling, partial curve].

`Cc1oc(-c2cc3c(cc2Cl)OCO3)nc1CN1CCCC(C(=O)N2CCOCC2)C1` (stereo unspecified): the AC50 under setting [1] is 0.0126 µM [falling, full curve, poor fit].

As for `CSc1nc(N)nc(SCCS(=O)(=O)c2ccc(Cl)cc2)c1C#N`, the AC50 under setting [2] is 35.5 µM [falling, single point].

Consider `O=c1c2cccnc2nc2n1CCCCC2`, for which the AC50 under setting [1] is 0.126 µM [rising, full curve].

`CCOC(=O)c1ccc(NC(=S)N(CCN2CCCCCC2)Cc2ccco2)cc1`: under setting [1], the AC50 is 35.5 µM [falling, single point].

Regarding `O=c1c2ccccc2cnn1-c1ccc(Cl)cc1`, the AC50 was 1.58 µM [rising, partial curve] under setting [1] and 11.2 µM [rising, partial curve] under setting [2].

As to `C[C@@]12C[C@@H](O)[C@H]3[C@@H](CCC4=CC(=O)CC[C@]43C)[C@H]1CC[C@H]2C(=O)CO`, the AC50 under setting [1] is 0.447 µM [falling, single point] and the AC50 under setting [2] is 0.447 µM [falling, partial curve].

In the case of `CCN=C1S/C(=C\c2ccc(N3CCOCC3)cc2C)C(=O)N1CC`, under setting [2], the AC50 is 31.6 µM [rising, single point].

`COC(=O)c1ccc(NC(=O)c2ccccc2NS(=O)(=O)c2ccccc2)cc1`: the AC50 reads like this: under setting [1], 17.8 µM [falling, single point]; under setting [2], 35.5 µM [falling, single point].

For the molecule `CN(c1ccccc1)S(=O)(=O)c1cccc(NC(=O)CSc2ncc(C(F)(F)F)cc2Cl)c1`, the AC50 under setting [1] is 8.91 µM [rising, partial curve, poor fit] and the AC50 under setting [2] is 11.2 µM [rising, partial curve].

Consider `Cc1ccc(C(=O)N/C(=C/c2cccs2)C(=O)NCCc2c[nH]c3ccccc23)cc1`, for which the AC50 under setting [2] was 3.98 µM [rising, partial curve].

Regarding `CCOC(=O)C(=CNc1ccc(OC)cc1[N+](=O)[O-])C(=O)OCC`, the AC50 runs as follows: under setting [1], 5.01 µM [falling, partial curve, poor fit]; under setting [2], 0.00447 µM [falling, full curve, poor fit].

`Cc1ccc(-n2cc(C(=O)c3cc(Cl)ccc3O)cc(C#N)c2=O)cc1`: the AC50 under setting [2] is 12.6 µM [rising, partial curve].

With `Cc1ccc(S(=O)(=O)N(C)Cc2ccc(C(=O)N/N=C3\CC(=O)CC(C)(C)C3)cc2)cc1`, the AC50 was 14.1 µM [rising, single point] under setting [1] and 14.1 µM [rising, partial curve] under setting [2].

Take `CCN(CC)S(=O)(=O)c1cccc(C(=O)OCC(=O)c2ccc3c(c2)OCCO3)c1`: the concentration at half-maximal activity (AC50) under setting [2] is 35.5 µM [rising, single point].

On to `CC(C(=O)N1CCCc2ccccc21)N1CCN(S(=O)(=O)c2ccccc2F)CC1` (stereo unspecified), for which the AC50 under setting [2] is 14.1 µM [rising, partial curve, poor fit].

In the case of `COc1cc(C(=O)OCC(=O)NCc2ccc(F)cc2)cc(NC(=O)c2cccs2)c1OC`, the AC50 under setting [2] was 0.0126 µM [rising, full curve, poor fit].

As for `Cc1cccc(NC(=S)N2CCN(Cc3ccc4c(c3)OCO4)CC2)c1C`, the AC50 under setting [2] was 28.2 µM [rising, partial curve].

For `CC(C)OC(=O)C(C(=O)OC(C)C)=C1SC=CS1`, the AC50 under setting [1] was 22.4 µM [rising, single point] and the AC50 under setting [2] was 0.00631 µM [falling, full curve, poor fit].

For `CN(C)CCN(Cc1ccco1)C(=O)c1oc2ccccc2c1NC(=O)c1cccc(F)c1`, the AC50 under setting [2] was 4.47 µM [falling, single point].

As to `COc1ccc2c(c1)C(NC(=O)C(F)(F)F)CC2=O` (stereo unspecified), the AC50 was 12.6 µM [falling, partial curve, poor fit] under setting [1] and 12.6 µM [falling, partial curve, poor fit] under setting [2].

Consider `COc1ccc(C(=O)/C=C/c2cn(CC(O)CN3CCOCC3)c3ccccc23)cc1` (stereo unspecified), for which, under setting [2], the AC50 was 4.47 µM [rising, partial curve].

Regarding `CCCN(CCC)S(=O)(=O)c1ccc(C(=O)Nc2nnc(CSC)o2)cc1`, the AC50 under setting [2] was 3.55 µM [rising, single point].

`COc1ccc(N2CCN(C(=O)c3cc4c(-c5cccc(OC)c5)nn(C)c4s3)CC2)cc1`: under setting [2], the AC50 is 12.6 µM [rising, single point].

With `COc1cccc(/C=N/NC(=O)CN(C2=NS(=O)(=O)c3ccccc32)c2ccccc2)c1`, the AC50 under setting [1] is 0.0224 µM [rising, full curve, poor fit] and the AC50 under setting [2] is 0.0224 µM [rising, full curve, poor fit].

For `CCOC(=O)c1ccc(NC(=O)Cn2nnc3ccccc32)cc1`, the AC50 under setting [2] was 35.5 µM [rising, single point].

As for `COC(=O)c1sccc1NN1C(=O)c2ccccc2C1=O`, the AC50 under setting [1] is 12.6 µM [rising, partial curve].
